# This is a selection; strong and weak results do not stand in their true shares. For part of these data: At the low end of the ranking, values are background and their order means little. Some of the results follow. For part of these data: Construct or isoform of the protein are uncertain.
# Molecular target: T1, GABPA (UniProt Q06546)
# T1 sequence: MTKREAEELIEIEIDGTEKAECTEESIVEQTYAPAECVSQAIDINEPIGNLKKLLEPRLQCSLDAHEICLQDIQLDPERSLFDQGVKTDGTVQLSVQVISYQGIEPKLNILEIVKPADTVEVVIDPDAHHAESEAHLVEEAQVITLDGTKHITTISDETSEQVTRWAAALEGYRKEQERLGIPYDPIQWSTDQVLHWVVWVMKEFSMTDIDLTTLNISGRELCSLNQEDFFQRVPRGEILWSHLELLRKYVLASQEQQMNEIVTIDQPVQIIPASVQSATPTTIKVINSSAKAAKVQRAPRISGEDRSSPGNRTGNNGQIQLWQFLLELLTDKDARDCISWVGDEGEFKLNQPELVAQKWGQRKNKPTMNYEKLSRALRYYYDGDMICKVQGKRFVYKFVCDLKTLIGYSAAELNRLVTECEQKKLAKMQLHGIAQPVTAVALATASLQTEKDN
# Test: DAPPL (digital affinity profiling via proximity ligation, sequencing)
# Conditions: 10 mM Tris-HCl pH 7.5, 50 mM NaCl, 1 mM DTT, 4% glycerol, room temperature, 30 min; GST-TFs on glutathione beads, 16-mer random dsDNA library, 0.1% …; high values mean tight binding; double strand, one strand shown; scale: fold enrichment (6-mer frequency, TF over GST control)
row,Sequence,binding signal
1,CCCAGT,0.626
2,ATGAGA,0.888
3,AGACAC,0.818
4,GCATGG,0.93
5,GGGGTC,0.671
6,AGTTGA,0.712
7,GAGGTC,0.612
8,TTCGTG,0.894
9,AGGTGC,0.72
10,GTCGGA,0.162
11,CGGGCC,0.873
12,AGCGCA,0.954
13,GAGGCC,0.486
14,GGGACA,0.674
15,AGGTAG,0.689
16,TAGGTG,0.883
17,ACGGCG,0.81
18,TAGAGT,0.877
19,GAGAAG,0.804

row,Sequence,binding signal
1,AGTTGT,0.831
2,GGCTGA,0.848
3,TCGGGA,0.379
4,GGGGGG,0.576
5,CAGGAG,0.264
6,CGGTGC,0.682
7,GTGACA,0.721
8,GCATGT,0.772
9,GGCGAG,0.498
10,TGAGTC,0.202
11,AGCAAG,0.98
12,GGAGAT,0.298
13,GTTGGA,0.472
14,CTGTGA,0.505
15,TGTGTC,0.686
16,TCAGTG,0.773
17,GAGGTA,0.65
18,CAGGGG,0.565
19,AGCGTT,0.866

# Molecular target: T2, ETS1 (UniProt P14921)
# T2 sequence: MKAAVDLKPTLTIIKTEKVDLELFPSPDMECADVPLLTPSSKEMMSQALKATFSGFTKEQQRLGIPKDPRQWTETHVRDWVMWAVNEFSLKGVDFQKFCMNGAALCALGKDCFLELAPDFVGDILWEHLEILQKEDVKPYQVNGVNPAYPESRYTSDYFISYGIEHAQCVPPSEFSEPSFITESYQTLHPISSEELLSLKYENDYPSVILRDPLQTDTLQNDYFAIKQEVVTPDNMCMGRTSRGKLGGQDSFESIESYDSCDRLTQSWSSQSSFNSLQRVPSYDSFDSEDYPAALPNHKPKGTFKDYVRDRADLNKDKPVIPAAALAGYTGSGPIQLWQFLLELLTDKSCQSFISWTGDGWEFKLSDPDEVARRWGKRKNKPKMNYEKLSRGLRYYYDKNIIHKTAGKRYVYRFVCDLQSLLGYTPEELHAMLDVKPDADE
# Test: as above
# Conditions: 10 mM Tris-HCl pH 7.5, 50 mM NaCl, 1 mM DTT, 4% glycerol, room temperature, 30 min; GST-TFs on glutathione beads, 16-mer random dsDNA library, 0.1% …; high values mean tight binding; double strand, one strand shown; scale: fold enrichment (6-mer frequency, TF over GST control)
row,Sequence,binding signal
1,CCCAGT,0.663
2,ATGAGA,0.922
3,AGACAC,0.772
4,GCATGG,0.847
5,GGGGTC,0.663
6,AGTTGA,0.809
7,GAGGTC,0.571
8,TTCGTG,0.961
9,AGGTGC,0.609
10,GTCGGA,0.16
11,CGGGCC,0.724
12,AGCGCA,0.909
13,GAGGCC,0.429
14,GGGACA,0.678
15,AGGTAG,0.652
16,TAGGTG,0.91
17,ACGGCG,0.72
18,TAGAGT,0.787
19,GAGAAG,0.691

row,Sequence,binding signal
1,AGTTGT,0.831
2,GGCTGA,0.741
3,TCGGGA,0.39
4,GGGGGG,0.597
5,CAGGAG,0.245
6,CGGTGC,0.574
7,GTGACA,0.736
8,GCATGT,0.842
9,GGCGAG,0.493
10,TGAGTC,0.183
11,AGCAAG,0.888
12,GGAGAT,0.3
13,GTTGGA,0.472
14,CTGTGA,0.496
15,TGTGTC,0.751
16,TCAGTG,0.801
17,GAGGTA,0.643
18,CAGGGG,0.532
19,AGCGTT,0.961

# Molecular target: T3, SPDEF (UniProt O95238)
# T3 sequence: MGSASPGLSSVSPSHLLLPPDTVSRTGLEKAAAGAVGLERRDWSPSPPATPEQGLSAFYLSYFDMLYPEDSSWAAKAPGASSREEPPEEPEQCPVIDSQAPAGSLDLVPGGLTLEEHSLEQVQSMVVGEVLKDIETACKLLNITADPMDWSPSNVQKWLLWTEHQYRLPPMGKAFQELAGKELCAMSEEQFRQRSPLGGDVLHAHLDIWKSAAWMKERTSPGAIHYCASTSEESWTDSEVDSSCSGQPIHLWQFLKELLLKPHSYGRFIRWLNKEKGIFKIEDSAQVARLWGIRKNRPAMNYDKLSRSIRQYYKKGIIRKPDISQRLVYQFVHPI
# Test: as above
# Conditions: 10 mM Tris-HCl pH 7.5, 50 mM NaCl, 1 mM DTT, 4% glycerol, room temperature, 30 min; GST-TFs on glutathione beads, 16-mer random dsDNA library, 0.1% …; high values mean tight binding; double strand, one strand shown; scale: fold enrichment (6-mer frequency, TF over GST control)
row,Sequence,binding signal
1,CCCAGT,0.621
2,ATGAGA,0.802
3,AGACAC,0.76
4,GCATGG,0.745
5,GGGGTC,0.639
6,AGTTGA,0.75
7,GAGGTC,0.636
8,TTCGTG,0.91
9,AGGTGC,0.592
10,GTCGGA,0.159
11,CGGGCC,0.752
12,AGCGCA,0.866
13,GAGGCC,0.398
14,GGGACA,0.709
15,AGGTAG,0.663
16,TAGGTG,0.797
17,ACGGCG,0.758
18,TAGAGT,0.761
19,GAGAAG,0.681

row,Sequence,binding signal
1,AGTTGT,0.724
2,GGCTGA,0.765
3,TCGGGA,0.372
4,GGGGGG,0.523
5,CAGGAG,0.263
6,CGGTGC,0.707
7,GTGACA,0.767
8,GCATGT,0.779
9,GGCGAG,0.514
10,TGAGTC,0.211
11,AGCAAG,0.813
12,GGAGAT,0.325
13,GTTGGA,0.457
14,CTGTGA,0.461
15,TGTGTC,0.843
16,TCAGTG,0.755
17,GAGGTA,0.667
18,CAGGGG,0.559
19,AGCGTT,0.895

# From paper PMC7862700
